This is one part of the list.
Tests used:
Experiment in all cases: log2 fold change, soluble protein after heating vs DMSO (PISA); higher = thermal stabilisation; K562 lysate, 10 uM; active = over 0.2 and 3.5 SD of the protein, either way, in both replicates (recomputed)
alvocidib = compound: CN1CC[C@H](c2c(O)cc(O)c3c(=O)cc(-c4ccccc4Cl)oc23)[C@H](O)C1 [alvocidib]
Method in brief: (§1)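 Quantification was by TMTpro 16plex LC-MS/MS with equalised channel sums, applied to the supernatant after 21,000xg for 90 min. Samples were crude K562 extract at 1 mg/mL protein in PBS pH 7.4 with 1 mM MgCl2, treated with 10 μM compound for 30 min, heated for 3 min across 48°C-58°C, pooled and brought to 0.5% NP-40 at 4°C. Values are log-two fold changes in thermal stability relative to solvent controls, from duplicates.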

By UniProt entry, the sequences of proteins in these tests, tags left out. Where a name states a change or a piece, a line headed by the entry shows the natural chain unless it says otherwise.
UniProt Q9UI15: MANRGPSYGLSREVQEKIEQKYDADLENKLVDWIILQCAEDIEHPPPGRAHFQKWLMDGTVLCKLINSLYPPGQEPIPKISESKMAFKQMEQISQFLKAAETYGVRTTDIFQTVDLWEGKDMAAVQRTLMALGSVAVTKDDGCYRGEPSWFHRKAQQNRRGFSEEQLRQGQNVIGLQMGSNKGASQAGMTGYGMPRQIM
UniProt Q9HCD6: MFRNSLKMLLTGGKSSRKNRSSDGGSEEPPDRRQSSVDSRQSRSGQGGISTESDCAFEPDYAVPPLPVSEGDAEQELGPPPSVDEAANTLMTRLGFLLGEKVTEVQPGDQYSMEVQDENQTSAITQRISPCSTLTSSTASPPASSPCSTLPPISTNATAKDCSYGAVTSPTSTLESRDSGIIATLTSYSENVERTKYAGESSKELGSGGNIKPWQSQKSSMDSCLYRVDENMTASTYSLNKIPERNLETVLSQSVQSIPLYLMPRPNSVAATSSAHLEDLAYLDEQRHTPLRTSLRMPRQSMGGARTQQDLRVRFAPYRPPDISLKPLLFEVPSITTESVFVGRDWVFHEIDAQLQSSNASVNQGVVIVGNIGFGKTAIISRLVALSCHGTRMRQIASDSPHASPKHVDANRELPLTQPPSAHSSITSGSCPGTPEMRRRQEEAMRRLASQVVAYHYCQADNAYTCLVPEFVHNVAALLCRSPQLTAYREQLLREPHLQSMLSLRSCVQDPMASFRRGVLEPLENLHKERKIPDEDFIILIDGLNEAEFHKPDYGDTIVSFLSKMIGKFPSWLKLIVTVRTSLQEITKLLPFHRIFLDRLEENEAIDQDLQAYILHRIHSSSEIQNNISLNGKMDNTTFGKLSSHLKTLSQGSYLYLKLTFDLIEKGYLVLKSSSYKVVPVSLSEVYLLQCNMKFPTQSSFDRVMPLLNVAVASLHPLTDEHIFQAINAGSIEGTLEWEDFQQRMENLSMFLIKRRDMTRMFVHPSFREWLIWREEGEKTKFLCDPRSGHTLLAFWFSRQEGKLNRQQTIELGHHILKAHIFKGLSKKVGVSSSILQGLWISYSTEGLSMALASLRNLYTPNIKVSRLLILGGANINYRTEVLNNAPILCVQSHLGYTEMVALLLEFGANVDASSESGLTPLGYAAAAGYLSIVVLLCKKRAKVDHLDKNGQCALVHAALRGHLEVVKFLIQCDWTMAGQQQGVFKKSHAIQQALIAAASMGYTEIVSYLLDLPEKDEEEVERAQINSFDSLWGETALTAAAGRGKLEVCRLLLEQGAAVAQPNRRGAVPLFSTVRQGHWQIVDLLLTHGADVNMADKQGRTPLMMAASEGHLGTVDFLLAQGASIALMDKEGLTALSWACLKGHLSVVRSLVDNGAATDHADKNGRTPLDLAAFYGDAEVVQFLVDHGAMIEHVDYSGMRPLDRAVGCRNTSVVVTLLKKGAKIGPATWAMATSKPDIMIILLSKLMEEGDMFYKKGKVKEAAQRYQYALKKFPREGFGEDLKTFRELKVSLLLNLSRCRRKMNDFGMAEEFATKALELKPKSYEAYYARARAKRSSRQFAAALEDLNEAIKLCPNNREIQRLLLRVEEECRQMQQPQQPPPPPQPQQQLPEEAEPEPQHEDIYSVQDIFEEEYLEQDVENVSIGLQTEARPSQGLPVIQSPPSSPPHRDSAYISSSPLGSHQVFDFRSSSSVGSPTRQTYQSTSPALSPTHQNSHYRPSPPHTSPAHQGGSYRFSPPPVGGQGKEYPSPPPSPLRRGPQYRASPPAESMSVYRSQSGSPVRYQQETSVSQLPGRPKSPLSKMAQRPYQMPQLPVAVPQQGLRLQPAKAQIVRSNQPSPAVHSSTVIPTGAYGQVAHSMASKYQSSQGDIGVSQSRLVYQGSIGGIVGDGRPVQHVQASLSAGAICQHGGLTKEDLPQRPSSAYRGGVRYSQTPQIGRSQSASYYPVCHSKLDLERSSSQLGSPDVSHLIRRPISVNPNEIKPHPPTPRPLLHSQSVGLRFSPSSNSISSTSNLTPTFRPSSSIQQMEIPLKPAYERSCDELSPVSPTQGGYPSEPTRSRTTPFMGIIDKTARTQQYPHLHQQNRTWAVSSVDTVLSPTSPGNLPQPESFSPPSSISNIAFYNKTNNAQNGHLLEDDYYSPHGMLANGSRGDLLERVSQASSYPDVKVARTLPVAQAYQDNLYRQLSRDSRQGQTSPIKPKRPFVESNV
UniProt Q9UGU0: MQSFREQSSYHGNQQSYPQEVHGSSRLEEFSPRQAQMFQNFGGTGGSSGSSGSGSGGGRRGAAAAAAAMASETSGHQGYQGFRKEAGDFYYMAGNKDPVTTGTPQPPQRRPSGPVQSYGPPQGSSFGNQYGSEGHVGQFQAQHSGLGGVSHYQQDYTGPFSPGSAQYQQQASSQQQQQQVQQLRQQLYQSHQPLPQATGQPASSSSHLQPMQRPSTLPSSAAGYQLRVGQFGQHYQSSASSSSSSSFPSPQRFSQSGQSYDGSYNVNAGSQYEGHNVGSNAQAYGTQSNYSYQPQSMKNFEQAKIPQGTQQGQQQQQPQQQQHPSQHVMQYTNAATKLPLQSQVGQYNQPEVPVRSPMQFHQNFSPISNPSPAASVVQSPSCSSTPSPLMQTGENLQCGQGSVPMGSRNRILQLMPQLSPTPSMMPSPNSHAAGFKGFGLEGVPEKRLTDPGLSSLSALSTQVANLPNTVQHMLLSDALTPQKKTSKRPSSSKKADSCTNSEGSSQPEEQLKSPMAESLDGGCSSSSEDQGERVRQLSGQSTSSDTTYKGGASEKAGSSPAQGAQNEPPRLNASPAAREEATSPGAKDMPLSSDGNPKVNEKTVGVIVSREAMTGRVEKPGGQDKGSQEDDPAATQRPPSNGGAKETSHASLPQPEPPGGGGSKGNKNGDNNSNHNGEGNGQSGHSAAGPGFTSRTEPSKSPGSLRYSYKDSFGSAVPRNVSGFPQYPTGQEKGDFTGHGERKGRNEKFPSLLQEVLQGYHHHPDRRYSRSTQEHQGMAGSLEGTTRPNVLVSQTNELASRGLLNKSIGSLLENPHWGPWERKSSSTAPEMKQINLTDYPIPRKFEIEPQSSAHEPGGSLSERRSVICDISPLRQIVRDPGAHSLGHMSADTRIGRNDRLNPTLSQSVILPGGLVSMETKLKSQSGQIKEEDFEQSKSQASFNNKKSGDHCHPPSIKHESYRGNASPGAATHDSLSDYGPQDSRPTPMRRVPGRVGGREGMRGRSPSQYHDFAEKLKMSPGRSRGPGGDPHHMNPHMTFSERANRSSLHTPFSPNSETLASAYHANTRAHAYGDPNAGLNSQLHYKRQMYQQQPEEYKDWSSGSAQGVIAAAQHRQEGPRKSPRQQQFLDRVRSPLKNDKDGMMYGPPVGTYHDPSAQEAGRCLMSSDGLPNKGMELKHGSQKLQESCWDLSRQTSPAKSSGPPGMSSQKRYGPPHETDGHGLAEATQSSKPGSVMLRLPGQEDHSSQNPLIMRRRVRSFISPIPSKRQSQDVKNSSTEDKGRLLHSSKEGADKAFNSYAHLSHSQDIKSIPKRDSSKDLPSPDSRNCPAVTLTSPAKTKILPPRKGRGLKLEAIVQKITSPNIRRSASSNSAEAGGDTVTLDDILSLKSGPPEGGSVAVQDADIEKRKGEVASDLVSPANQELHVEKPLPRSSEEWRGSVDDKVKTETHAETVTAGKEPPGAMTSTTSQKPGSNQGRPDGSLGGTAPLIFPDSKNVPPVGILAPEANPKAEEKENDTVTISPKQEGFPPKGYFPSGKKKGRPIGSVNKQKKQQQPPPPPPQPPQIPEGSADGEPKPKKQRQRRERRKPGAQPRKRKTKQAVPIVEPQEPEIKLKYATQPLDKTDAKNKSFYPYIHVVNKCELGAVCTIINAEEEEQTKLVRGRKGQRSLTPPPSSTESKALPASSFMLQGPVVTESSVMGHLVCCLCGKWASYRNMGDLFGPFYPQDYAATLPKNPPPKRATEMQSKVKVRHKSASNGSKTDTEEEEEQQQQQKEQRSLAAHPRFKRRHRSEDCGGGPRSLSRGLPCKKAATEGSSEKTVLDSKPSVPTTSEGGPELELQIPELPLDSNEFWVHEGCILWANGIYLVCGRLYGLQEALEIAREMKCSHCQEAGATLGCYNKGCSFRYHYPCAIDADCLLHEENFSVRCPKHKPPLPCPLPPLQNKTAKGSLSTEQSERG
UniProt P21731: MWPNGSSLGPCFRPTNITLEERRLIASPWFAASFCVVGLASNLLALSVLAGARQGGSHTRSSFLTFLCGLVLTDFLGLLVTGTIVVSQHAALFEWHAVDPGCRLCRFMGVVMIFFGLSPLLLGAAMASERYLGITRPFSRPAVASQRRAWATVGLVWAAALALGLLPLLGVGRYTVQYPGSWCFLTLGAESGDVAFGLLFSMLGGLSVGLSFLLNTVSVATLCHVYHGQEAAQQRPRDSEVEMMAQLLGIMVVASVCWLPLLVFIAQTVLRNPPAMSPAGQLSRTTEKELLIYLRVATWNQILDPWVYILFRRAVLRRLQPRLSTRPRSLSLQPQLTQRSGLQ
UniProt Q8NDF8: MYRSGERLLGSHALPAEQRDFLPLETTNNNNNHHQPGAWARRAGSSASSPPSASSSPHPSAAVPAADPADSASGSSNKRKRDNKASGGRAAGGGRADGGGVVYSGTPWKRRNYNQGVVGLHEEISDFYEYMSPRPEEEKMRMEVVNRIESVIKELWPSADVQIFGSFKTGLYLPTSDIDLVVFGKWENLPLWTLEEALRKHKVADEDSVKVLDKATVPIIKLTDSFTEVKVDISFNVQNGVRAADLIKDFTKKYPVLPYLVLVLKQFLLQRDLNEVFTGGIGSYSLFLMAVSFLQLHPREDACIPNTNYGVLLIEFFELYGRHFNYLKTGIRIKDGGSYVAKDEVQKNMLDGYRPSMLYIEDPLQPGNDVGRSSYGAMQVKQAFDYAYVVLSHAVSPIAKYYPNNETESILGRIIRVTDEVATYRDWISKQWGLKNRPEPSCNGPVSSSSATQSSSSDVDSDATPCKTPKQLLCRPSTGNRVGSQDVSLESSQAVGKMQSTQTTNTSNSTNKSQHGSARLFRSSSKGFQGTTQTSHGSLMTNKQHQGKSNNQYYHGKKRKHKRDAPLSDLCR
UniProt Q9H6P5: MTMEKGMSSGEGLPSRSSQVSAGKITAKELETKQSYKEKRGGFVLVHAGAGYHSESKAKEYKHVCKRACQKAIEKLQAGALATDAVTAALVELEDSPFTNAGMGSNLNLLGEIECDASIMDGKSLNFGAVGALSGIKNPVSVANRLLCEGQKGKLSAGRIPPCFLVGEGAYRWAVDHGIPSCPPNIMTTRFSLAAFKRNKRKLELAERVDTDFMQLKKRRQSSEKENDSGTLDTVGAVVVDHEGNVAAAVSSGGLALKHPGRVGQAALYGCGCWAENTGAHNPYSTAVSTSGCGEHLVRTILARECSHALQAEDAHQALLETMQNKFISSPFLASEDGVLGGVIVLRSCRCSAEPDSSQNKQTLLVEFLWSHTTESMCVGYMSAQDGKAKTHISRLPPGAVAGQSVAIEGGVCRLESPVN
UniProt P24557: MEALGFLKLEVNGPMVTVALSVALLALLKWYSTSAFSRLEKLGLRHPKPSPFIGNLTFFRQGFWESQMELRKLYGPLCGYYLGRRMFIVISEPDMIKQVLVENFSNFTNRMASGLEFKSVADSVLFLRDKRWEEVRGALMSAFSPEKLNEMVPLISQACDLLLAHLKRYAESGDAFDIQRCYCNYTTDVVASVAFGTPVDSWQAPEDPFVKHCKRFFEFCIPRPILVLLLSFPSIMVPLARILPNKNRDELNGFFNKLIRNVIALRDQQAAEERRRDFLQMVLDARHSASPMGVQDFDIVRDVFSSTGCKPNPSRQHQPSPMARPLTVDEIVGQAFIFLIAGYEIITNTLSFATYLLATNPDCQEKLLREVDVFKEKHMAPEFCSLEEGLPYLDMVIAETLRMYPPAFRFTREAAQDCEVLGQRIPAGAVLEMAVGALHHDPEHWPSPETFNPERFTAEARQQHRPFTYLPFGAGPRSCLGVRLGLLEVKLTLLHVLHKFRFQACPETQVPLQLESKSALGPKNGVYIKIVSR
UniProt Q15560: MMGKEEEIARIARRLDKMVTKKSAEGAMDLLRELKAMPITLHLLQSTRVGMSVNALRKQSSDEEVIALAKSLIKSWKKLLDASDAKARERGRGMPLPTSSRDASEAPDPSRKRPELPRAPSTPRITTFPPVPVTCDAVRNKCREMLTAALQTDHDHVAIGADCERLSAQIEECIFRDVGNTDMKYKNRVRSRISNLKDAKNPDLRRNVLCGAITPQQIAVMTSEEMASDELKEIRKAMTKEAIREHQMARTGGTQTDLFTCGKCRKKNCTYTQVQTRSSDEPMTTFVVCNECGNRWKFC
UniProt Q86WV5: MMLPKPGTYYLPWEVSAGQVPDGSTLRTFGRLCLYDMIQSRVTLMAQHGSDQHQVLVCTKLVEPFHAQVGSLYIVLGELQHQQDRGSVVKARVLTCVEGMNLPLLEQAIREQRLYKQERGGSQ

[1] = compound: CNC(=O)C1=CC=CC=C1NC2=NC(=NC=C2Cl)NC3=C(C=C(C=C3)N4CCOCC4)OC
Method in brief: as §1

defactinib = compound: CNC(=O)c1ccc(Nc2ncc(C(F)(F)F)c(NCc3nccnc3N(C)S(C)(=O)=O)n2)cc1 [defactinib]
Method in brief: as §1

encorafenib = compound: COC(=O)N[C@@H](C)CNc1nccc(-c2cn(C(C)C)nc2-c2cc(Cl)cc(NS(C)(=O)=O)c2F)n1 [encorafenib]
Method in brief: as §1

[2] = compound: COC(=O)[C@H](CCSC)NC(=O)C1=C(C=C(C=C1)NC[C@H](CS)N)C2=CC=CC=C2
Method in brief: as §1

[3] = compound: COc1cc2nc(-c3cc(F)ccc3O)nc(N[C@@H]3CNC[C@H]3C(C)(C)O)c2cc1OC
Method in brief: as §1

lapatinib = compound: CS(=O)(=O)CCNCc1ccc(-c2ccc3ncnc(Nc4ccc(OCc5cccc(F)c5)c(Cl)c4)c3c2)o1 [lapatinib]
Method in brief: as §1

[4] = compound: C[C@H](C1=CC=C(C=C1)C(=O)NC2=C3C=CNC3=NC=C2)N
Method in brief: as §1

gandotinib = compound: Cc1cc(Nc2cc(CN3CCOCC3)c3nc(C)c(Cc4ccc(Cl)cc4F)n3n2)n[nH]1 [gandotinib]
Method in brief: as §1

tozasertib = compound: Cc1cc(Nc2cc(N3CCN(C)CC3)nc(Sc3ccc(NC(=O)C4CC4)cc3)n2)n[nH]1 [tozasertib]
Method in brief: as §1

[5] = compound: Cc1cccc(CC(=O)N2CCc3c2ccc(-c2cn(C)c4ncnc(N)c24)c3F)n1
Method in brief: as §1

Tubastatin A = compound: CN1CCc2c(c3ccccc3n2Cc2ccc(C(=O)NO)cc2)C1 [Tubastatin A]
Method in brief: as §1

[6] = compound: CNc1nc(-c2ccc3c(N)n[nH]c3c2)cc(N2C[C@@H](C(=O)NC3CCCCC3)CC[C@H]2C)n1
Method in brief: as §1

crizotinib = compound: C[C@@H](Oc1cc(-c2cnn(C3CCNCC3)c2)cnc1N)c1c(Cl)ccc(F)c1Cl [crizotinib]
Method in brief: as §1

duvelisib = compound: C[C@H](Nc1ncnc2nc[nH]c12)c1cc2cccc(Cl)c2c(=O)n1-c1ccccc1 [duvelisib]
Method in brief: as §1

doramapimod = compound: Cc1ccc(-n2nc(C(C)(C)C)cc2NC(=O)Nc2ccc(OCCN3CCOCC3)c3ccccc23)cc1 [doramapimod]
Method in brief: as §1

alisertib = compound: COc1cc(Nc2ncc3c(n2)-c2ccc(Cl)cc2C(c2c(F)cccc2OC)=NC3)ccc1C(=O)O [alisertib]
Method in brief: as §1

gefitinib = compound: COc1cc2ncnc(Nc3ccc(F)c(Cl)c3)c2cc1OCCCN1CCOCC1 [gefitinib]
Method in brief: as §1

pictilisib = compound: CS(=O)(=O)N1CCN(Cc2cc3nc(-c4cccc5[nH]ncc45)nc(N4CCOCC4)c3s2)CC1 [pictilisib]
Method in brief: as §1

bafetinib = compound: Cc1ccc(NC(=O)c2ccc(CN3CC[C@H](N(C)C)C3)c(C(F)(F)F)c2)cc1Nc1nccc(-c2cncnc2)n1 [bafetinib]
Method in brief: as §1

Measured: log2 fold change

TAGLN3 (UniProt Q9UI15)
inactive: alvocidib -0.14 | [1] 0.055 | defactinib -0.111 | encorafenib -0.075 | [2] -0.044 | [3] -0.055 | lapatinib 0.103 | [4] -0.163 | gandotinib 0.265 | tozasertib 0.175 | [5] 0.287

TESMIN (UniProt Q9Y4I5)
inactive: alvocidib 0.076 | Tubastatin A 0.038 | [1] -0.004 | defactinib -0.07 | [6] 0.151 | encorafenib -0.056 | [2] 0.055 | crizotinib -0.047 | [4] 0.21 | duvelisib -0.19 | gandotinib -0.148 | tozasertib 0.049 | doramapimod 0.011 | [5] 0.138

TAZ (UniProt Q16635)
inactive: alvocidib 0.093 | [1] 0.187 | [3] 0.006 | lapatinib -0.01 | crizotinib 0.065 | [4] -0.448 | gandotinib 0.294 | doramapimod -0.09 | [5] 0.026

TANC2 isoform 2 (UniProt Q9HCD6)
inactive: alvocidib -0.022 | Tubastatin A 0 | [1] -0.038 | [6] 0.235 | alisertib -0.171 | gefitinib 0.228 | [4] 0.057 | duvelisib -0.317 | gandotinib 0.031 | [5] 0.13

TBCCD1 (UniProt Q9NVR7)
inactive: alvocidib -0.017 | Tubastatin A 0.564 | [1] -0.07 | [4] -0.155 | gandotinib -0.022 | [5] 0.068

TCF20 (UniProt Q9UGU0)
inactive: alvocidib -0.017 | [1] 0.01 | [3] 0.167 | lapatinib -0.049 | pictilisib -0.034 | crizotinib 0.019 | [4] 0.011 | duvelisib 0.094 | gandotinib 0.108 | doramapimod -0.032 | bafetinib -0.001 | [5] -0.005
active: [6] 0.615

TDG (UniProt Q13569)
inactive: alvocidib -0.041 | Tubastatin A -0.183 | defactinib 0.04 | [6] -0.059 | encorafenib -0.329 | [2] -0.041 | alisertib 0.007 | gefitinib -0.057 | pictilisib -0.109 | crizotinib 0.104 | [4] -0.025 | duvelisib -0.012 | gandotinib 0.015 | tozasertib 0.109 | doramapimod -0.033 | bafetinib -0.042 | [5] 0.065

TCOF1 isoform 3 (UniProt Q13428)
inactive: alvocidib 0.214 | [1] 0.149 | [3] 0.239 | lapatinib -0.45 | pictilisib -0.063 | crizotinib -0.068 | [4] -0.033 | gandotinib 0.085 | doramapimod -0.021 | bafetinib -0.073 | [5] -0.023

TENM4 (UniProt Q6N022)
inactive: alvocidib 0.03 | [3] 0.024 | lapatinib -0.169 | pictilisib -0.065 | crizotinib -0.07 | [4] 0.415 | gandotinib -0.028 | doramapimod -0.068 | bafetinib -0.148 | [5] -0.032

TBXA2R (UniProt P21731)
inactive: alvocidib -0.046 | Tubastatin A 0.01 | [1] 0.013 | pictilisib 0.029 | crizotinib -0.043 | [4] -0.042 | gandotinib -0.177 | doramapimod -0.024 | bafetinib 0.073 | [5] 0.115

TCF3 (UniProt X6REB3)
inactive: alvocidib -0.168 | defactinib -0.149 | [4] -0.081 | gandotinib 0.269 | [5] 0.105

TENT4B isoform 5 (UniProt Q8NDF8)
inactive: Tubastatin A -0.098 | [1] -0.031 | alisertib -0.145 | gefitinib -0.228 | pictilisib 0.03 | crizotinib 0.007 | doramapimod -0.053 | bafetinib 0.128

Two entries drawn at random from the list so far, as already listed:
TCOF1 isoform 3 (UniProt Q13428)
inactive: alvocidib 0.214 | [1] 0.149 | [3] 0.239 | lapatinib -0.45 | pictilisib -0.063 | crizotinib -0.068 | [4] -0.033 | gandotinib 0.085 | doramapimod -0.021 | bafetinib -0.073 | [5] -0.023

TCF3 (UniProt X6REB3)
inactive: alvocidib -0.168 | defactinib -0.149 | [4] -0.081 | gandotinib 0.269 | [5] 0.105

Continued.

TFPI isoform 2 (UniProt P10646)
inactive: defactinib -0.109 | crizotinib 0.045 | doramapimod -0.121

TASP1 (UniProt Q9H6P5)
inactive: Tubastatin A 0.087 | [1] -0.119 | [6] 0.112 | encorafenib -0.035 | [2] 0.103 | alisertib -0.151 | [3] -0.048 | gefitinib -0.046 | lapatinib 0.009 | pictilisib -0.217 | crizotinib -0.086 | duvelisib 0 | tozasertib -0.002 | doramapimod 0.053 | bafetinib -0.235

TBKBP1 (UniProt A7MCY6)
inactive: pictilisib 0.073 | bafetinib -0.159

TBXAS1 isoform 3 (UniProt P24557)
inactive: crizotinib 0.092 | doramapimod 0.135

TCEA2 (UniProt Q15560)
inactive: Tubastatin A -0.254 | encorafenib -0.029 | [2] 0.094 | tozasertib 0.106

TAOK2 isoform 2 (UniProt Q9UL54)
inactive: alisertib -0.046 | gefitinib -0.202

TBCD, A0A0J9YWI5
inactive: encorafenib -0.109 | [2] -0.212 | crizotinib -0.022 | tozasertib -0.187 | doramapimod -0.093

TEN1 (UniProt Q86WV5)
inactive: alisertib -0.109 | gefitinib -0.098

TARDBP (UniProt K7EN94)
inactive: defactinib -0.197 | encorafenib 0.224 | [2] 0.04 | tozasertib 0.257
